These are yes or no findings as the source states them, for the method shown. Some binding calls cover weakened binding; strength is not graded here.

The text below walks through data of PMC8184782 (Nature Communications, 2021).

The target in the experiment is MLKL K219R, mouse, expressed from the endogenous Mlkl locus of knock-in mice (mouse (endogenous in MDFs)) (UniProt Q9D2Y4). Put plainly: native gel or EMSA; Blue native PAGE (4-16% Bis-Tris) of cytoplasmic and membrane fractions (digitonin) of MDFs treated with TSZ for 2.5 h or left untreated; immunoblot for MLKL. On the technique in general: In EMSA bound probe runs differently from free probe, usually more slowly.

B1: MLKL K219R, mouse, expressed from the endogenous Mlkl locus of knock-in mice (protein, UniProt Q9D2Y4-2 1-464)
chain: MDKLGQIIKLGQLIYEQCEKMKYCRKQCQRLGNRVHGLLQPLQRLQAQGKKNLPDDITAALGRFDEVLKEANQQIEKFSKKSHIWKFVSVGNDKILFHEVNEKLRDVWEELLLLLQVYHWNTVSDVSQPASWQQEDRQDAEEDGNENMKVILMQLQISVEEINKTLKQCSLKPTQEIPQDLQIKEIPKEHLGPPWTKLKTSKMSTIYRGEYHRSPVTIRVFNNPQAESVGIVRFTFNDEIKTMKKFDSPNILRIFGICIDQTVKPPEFSIVMEYCELGTLRELLDREKDLTMSVRSLLVLRAARGLYRLHHSETLHRNISSSSFLVAGGYQVKLAGFELSKTQNSISRTAKSTKAERSSSTIYVSPERLKNPFCLYDIKAEIYSFGIVLWEIATGKIPFEGCDSKKIRELVAEDKKQEPVGQDCPELLREIINECRAHEPSQRPSVDGILERLSAVEESTDKKV
modifications: phosphorylated after TSZ
Turning to B1, the binding entry was “binds weakly”.
